PubChem BioAssay (NCATS)
The inconclusive results got no clear call from the source; some entries with a clear call stand among them for comparison. A potency beside an inconclusive call is a rough fit, not a confirmed value. Active and inactive are the calls of the source. Calls follow the shape of the dose curve; as a rule, active = well fitted cell-killing curve with a large enough effect; inconclusive = small, poorly fitted or top-dose-only effect; inactive = flat fitted curve, though single readings scatter.

experiment: Quantitative highthroughput screen to assess conditional lethalithy of P12 Ichikawa cells grown in Human Plasma-Like Medium with dialyzed fetal bovine serum (HPLM+ds) (AID 1963879); settings: ATP luminescence, 48 h; Potency: viability; series mostly up to 45.8 µM; viability: at the top concentration; also: nearly all actives have a fitted effect of over 35% in size
In short: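 Each medium arm—HPLM with 10% dialyzed FBS, or RPMI1640 with 5 mM glucose and 10% untreated or dialyzed FBS—was screened against an 11-point, 3-fold compound titration for 48 h at 37 °C, with CellTiter-Glo luminescence as endpoint.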
Potency is read from the fitted curve at half-maximal effect.

SMILES | Potency | viability
CC(C)(C)NC(=O)[C@H]1CN(Cc2cccnc2)CCN1C[C@@H](O)C[C@@H](Cc1ccccc1)C(=O)N[C@H]1c2ccccc2C[C@H]1O | inconclusive: 23.5 µM [cytotoxic, single point] | 
CN1CCN(c2cccc(Nc3nc4c(-c5ccc(S(C)(=O)=O)cc5)cccn4n3)c2)CC1 | inconclusive: 26.4 µM [cytotoxic, single point] | 
COc1cc(N2CCC(O)CC2)ccc1Nc1cc(Nc2ccccc2S(=O)(=O)C(C)C)c2cc[nH]c2n1 |  | inactive: 100%
Cc1nc(NC(=O)N2CCC[C@@H]2C(N)=O)sc1-c1ccnc(C(C)(C)C(F)(F)F)c1 | inconclusive: 4.18 µM [cytotoxic, partial curve, poor fit] | 
Nc1nc(Nc2ccc(S(N)(=O)=O)cc2)nn1C(=O)c1c(F)cccc1F | inconclusive: 37.2 µM [cytotoxic, single point] | 
COc1ccc([C@@H]2CC(=O)c3c(O)cc(O[C@@H]4O[C@H](CO[C@@H]5O[C@@H](C)[C@H](O)[C@@H](O)[C@@H]5O)[C@@H](O)[C@H](O)[C@@H]4O)cc3O2)cc1O | inactive | 
C[C@H]1[C@H](O)O[C@@H]2O[C@@]3(C)CC[C@@H]4[C@H](C)CC[C@@H]1[C@@]24OO3 | inconclusive: 4.69 µM [cytotoxic, full curve] | 
O=c1c(-c2ccc(O)cc2)coc2cc(O[C@@H]3O[C@H](CO)[C@H](O)[C@H](O)[C@H]3O)ccc12 |  | inactive: 103%
C[C@H]1C[C@@H]2[C@@H]([C@@H](O)C[C@@]3(C)[C@H]2CC[C@]3(O)C(=O)CO)[C@@]2(C)C=CC(=O)C=C12 | inconclusive: 0.296 µM [cytotoxic, full curve] | 
Nc1ccccc1NC(=O)c1ccc(CNC(=O)OCc2cccnc2)cc1 | active: 2.35 µM | 
Cc1cnc(Nc2ccc(F)cc2Cl)nc1-c1c[nH]c(C(=O)N[C@H](CO)c2cccc(Cl)c2)c1 | inconclusive: 2.64 µM [cytotoxic, full curve] | 
Nc1ncnc2c1ncn2[C@@H]1O[C@H](CO)[C@@H](O)[C@@H]1O | active: 7.43 µM | 
COc1cc(N2CCN(C)CC2)ccc1Nc1nc(N)c(C(=O)c2c(Cl)cccc2Cl)s1 | inconclusive: 26.4 µM [cytotoxic, single point] | 
CCCCN1CCC(CNC(=O)c2c3n(c4ccccc24)CCCO3)CC1 | active: 18.7 µM | 
O=C(O)c1ccccc1C(=O)Nc1ccc(-c2ccccc2)cc1 |  | inactive: 101%
C#C[C@]1(O)CC[C@H]2[C@H]3CCc4cc(OC)ccc4[C@H]3CC[C@@]21C |  | inactive: 99%

Quoted at random: two compounds from above
SMILES | Potency | viability
C[C@H]1[C@H](O)O[C@@H]2O[C@@]3(C)CC[C@@H]4[C@H](C)CC[C@@H]1[C@@]24OO3 | inconclusive: 4.69 µM [cytotoxic, full curve] | 
COc1cc(N2CCC(O)CC2)ccc1Nc1cc(Nc2ccccc2S(=O)(=O)C(C)C)c2cc[nH]c2n1 |  | inactive: 100%
